# Assay results taken from article PMC5746398.
# Protein sequences, listed by entry. Tags and fused reporters are not part of them.
# UniProt O00429: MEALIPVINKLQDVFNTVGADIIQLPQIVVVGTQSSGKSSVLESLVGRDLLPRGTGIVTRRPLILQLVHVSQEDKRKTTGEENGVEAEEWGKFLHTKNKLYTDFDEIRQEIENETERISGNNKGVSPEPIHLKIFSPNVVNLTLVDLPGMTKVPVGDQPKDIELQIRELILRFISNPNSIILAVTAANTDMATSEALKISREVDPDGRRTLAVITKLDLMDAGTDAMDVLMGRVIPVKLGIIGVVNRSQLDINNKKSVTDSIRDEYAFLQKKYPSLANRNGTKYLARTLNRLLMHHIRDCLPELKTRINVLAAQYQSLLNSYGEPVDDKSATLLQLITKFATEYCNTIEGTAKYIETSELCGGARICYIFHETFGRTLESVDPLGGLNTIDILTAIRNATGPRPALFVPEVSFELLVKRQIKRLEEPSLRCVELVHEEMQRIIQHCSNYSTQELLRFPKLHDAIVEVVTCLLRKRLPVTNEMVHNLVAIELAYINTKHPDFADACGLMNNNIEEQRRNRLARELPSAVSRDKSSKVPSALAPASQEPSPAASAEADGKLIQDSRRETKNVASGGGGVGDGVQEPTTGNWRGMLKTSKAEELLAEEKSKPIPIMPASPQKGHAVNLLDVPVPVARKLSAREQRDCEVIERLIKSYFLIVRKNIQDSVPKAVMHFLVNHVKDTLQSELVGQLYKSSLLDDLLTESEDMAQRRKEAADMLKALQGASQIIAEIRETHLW
# UniProt P15104: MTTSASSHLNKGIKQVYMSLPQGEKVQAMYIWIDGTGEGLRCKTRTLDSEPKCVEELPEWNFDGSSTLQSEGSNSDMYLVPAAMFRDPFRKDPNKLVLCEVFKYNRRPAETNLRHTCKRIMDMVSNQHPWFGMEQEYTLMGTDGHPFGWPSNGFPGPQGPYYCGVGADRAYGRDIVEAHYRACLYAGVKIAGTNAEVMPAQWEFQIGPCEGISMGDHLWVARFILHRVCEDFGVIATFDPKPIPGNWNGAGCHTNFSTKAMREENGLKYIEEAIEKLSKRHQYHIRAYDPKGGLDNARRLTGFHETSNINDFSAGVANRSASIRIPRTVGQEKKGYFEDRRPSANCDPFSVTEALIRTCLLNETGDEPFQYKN
# UniProt Q9ULT8: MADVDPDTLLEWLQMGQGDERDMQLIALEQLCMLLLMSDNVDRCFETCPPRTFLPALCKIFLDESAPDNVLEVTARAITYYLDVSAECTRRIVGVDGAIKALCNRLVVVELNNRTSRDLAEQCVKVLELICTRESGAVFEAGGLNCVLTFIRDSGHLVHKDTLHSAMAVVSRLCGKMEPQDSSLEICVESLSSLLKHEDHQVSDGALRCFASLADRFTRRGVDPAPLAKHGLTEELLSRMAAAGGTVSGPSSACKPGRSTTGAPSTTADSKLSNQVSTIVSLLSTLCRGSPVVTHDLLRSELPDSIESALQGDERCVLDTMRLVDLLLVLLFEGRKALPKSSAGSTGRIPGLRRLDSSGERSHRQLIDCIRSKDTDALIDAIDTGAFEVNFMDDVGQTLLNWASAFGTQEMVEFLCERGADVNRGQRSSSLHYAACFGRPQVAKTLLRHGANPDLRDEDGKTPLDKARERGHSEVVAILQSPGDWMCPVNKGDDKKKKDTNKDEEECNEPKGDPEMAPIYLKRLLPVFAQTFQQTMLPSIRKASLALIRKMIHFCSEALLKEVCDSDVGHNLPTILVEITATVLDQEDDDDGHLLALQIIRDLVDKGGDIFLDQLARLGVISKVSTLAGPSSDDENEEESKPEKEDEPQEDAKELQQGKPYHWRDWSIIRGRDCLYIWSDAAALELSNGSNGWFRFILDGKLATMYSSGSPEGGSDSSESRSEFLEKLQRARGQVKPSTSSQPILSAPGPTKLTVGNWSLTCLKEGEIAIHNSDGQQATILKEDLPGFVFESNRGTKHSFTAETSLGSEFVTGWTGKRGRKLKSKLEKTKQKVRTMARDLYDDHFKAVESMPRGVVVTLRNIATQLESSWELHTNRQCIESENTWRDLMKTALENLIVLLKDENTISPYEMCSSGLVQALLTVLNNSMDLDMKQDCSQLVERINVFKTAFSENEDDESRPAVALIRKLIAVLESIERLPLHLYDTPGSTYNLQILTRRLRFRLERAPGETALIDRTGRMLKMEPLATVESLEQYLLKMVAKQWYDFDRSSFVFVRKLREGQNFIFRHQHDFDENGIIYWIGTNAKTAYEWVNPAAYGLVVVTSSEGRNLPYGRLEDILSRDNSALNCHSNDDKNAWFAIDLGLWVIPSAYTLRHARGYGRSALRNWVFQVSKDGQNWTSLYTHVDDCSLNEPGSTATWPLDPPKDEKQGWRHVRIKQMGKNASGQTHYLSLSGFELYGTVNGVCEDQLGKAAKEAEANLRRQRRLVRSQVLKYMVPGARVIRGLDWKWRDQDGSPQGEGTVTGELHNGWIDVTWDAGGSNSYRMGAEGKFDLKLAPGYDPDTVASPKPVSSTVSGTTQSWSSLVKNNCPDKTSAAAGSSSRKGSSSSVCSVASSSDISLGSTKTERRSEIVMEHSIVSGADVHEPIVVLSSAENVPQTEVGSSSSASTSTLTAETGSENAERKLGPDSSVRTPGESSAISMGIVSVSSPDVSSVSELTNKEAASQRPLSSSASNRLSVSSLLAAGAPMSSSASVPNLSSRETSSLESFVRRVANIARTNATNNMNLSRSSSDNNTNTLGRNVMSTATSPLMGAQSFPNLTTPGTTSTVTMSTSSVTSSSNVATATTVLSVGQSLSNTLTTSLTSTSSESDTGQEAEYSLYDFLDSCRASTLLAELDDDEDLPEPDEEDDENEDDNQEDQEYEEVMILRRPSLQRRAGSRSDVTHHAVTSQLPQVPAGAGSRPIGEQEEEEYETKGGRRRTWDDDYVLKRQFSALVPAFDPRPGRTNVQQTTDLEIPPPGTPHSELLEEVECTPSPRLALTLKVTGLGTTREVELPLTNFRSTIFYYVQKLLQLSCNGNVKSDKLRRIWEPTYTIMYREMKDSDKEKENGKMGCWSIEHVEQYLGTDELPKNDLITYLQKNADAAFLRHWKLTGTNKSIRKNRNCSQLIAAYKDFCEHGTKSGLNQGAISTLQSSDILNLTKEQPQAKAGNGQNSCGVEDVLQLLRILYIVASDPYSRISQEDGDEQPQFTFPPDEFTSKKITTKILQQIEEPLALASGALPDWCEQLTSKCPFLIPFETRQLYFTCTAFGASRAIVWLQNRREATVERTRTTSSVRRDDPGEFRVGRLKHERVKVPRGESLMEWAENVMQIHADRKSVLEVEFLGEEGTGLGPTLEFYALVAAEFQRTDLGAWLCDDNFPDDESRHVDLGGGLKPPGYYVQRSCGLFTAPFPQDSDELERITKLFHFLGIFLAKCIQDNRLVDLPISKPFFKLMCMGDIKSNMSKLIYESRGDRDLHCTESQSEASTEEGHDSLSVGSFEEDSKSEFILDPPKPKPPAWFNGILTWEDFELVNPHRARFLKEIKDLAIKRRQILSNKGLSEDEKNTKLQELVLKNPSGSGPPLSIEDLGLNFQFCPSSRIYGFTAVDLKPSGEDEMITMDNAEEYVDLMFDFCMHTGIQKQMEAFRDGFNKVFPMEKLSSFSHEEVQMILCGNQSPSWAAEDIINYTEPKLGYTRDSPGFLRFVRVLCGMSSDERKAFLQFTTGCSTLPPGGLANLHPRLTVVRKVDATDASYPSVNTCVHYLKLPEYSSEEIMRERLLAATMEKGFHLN
# UniProt Q9H4L5: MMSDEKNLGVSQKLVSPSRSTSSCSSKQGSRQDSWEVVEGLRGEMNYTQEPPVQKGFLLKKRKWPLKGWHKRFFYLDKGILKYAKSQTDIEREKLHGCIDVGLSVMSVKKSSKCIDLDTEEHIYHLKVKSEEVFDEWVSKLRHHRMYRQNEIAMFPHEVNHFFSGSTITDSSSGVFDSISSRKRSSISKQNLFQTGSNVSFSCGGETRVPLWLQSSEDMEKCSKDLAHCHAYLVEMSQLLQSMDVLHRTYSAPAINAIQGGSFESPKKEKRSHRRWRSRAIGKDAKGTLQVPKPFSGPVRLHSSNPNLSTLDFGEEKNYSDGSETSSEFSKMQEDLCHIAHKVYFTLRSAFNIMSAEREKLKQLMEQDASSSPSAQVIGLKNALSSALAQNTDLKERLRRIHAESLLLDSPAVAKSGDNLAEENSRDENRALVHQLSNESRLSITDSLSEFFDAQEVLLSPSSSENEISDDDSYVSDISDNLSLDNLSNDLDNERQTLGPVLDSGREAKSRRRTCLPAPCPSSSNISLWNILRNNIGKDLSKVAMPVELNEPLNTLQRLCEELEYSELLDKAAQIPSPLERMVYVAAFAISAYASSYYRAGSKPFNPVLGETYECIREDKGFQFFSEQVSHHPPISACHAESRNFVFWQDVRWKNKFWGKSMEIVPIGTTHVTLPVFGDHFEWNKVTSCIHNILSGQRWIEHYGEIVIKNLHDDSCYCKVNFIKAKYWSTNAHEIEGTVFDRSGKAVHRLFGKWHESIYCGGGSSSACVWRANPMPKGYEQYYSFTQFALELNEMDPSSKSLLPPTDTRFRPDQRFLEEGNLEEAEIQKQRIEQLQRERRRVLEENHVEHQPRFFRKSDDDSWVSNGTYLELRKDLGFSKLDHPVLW
# UniProt P51784: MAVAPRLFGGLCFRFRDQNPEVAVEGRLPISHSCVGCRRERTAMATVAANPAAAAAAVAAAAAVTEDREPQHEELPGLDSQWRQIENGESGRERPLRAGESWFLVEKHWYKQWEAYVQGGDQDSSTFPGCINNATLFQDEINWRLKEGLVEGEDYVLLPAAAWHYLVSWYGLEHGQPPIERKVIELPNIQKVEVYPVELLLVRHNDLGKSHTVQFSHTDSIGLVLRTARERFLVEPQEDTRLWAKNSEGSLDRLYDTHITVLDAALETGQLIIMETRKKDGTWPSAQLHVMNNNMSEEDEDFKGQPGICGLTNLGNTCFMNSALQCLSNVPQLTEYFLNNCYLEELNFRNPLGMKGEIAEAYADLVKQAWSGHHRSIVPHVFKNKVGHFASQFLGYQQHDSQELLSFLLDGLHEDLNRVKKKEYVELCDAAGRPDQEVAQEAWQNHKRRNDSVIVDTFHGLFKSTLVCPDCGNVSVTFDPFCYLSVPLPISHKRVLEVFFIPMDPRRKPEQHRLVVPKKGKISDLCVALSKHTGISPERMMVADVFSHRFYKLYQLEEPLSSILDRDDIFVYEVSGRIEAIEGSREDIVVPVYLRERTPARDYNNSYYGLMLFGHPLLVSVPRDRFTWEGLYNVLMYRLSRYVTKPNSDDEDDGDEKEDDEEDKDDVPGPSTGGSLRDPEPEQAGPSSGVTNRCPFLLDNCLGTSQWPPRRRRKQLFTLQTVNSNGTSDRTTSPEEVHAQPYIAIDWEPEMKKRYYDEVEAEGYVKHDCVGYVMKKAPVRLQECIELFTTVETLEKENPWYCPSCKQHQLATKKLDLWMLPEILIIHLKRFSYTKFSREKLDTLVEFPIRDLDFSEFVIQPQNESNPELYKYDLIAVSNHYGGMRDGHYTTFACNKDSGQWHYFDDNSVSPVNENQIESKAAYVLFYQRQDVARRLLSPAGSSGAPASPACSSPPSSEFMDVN
# Results are given in words; binding and its absence hold for the method and conditions named. In cells and extracts the contact can be indirect. A yes stands for co-enrichment or nearness to the bait. Other partners may have been found.
# T1: Ubiquitin Specific Peptidase 15 (USP15) (human (endogenous in LN-229, LN-428, LN-18)) (UniProt Q9Y4E8)
# T1 sequence: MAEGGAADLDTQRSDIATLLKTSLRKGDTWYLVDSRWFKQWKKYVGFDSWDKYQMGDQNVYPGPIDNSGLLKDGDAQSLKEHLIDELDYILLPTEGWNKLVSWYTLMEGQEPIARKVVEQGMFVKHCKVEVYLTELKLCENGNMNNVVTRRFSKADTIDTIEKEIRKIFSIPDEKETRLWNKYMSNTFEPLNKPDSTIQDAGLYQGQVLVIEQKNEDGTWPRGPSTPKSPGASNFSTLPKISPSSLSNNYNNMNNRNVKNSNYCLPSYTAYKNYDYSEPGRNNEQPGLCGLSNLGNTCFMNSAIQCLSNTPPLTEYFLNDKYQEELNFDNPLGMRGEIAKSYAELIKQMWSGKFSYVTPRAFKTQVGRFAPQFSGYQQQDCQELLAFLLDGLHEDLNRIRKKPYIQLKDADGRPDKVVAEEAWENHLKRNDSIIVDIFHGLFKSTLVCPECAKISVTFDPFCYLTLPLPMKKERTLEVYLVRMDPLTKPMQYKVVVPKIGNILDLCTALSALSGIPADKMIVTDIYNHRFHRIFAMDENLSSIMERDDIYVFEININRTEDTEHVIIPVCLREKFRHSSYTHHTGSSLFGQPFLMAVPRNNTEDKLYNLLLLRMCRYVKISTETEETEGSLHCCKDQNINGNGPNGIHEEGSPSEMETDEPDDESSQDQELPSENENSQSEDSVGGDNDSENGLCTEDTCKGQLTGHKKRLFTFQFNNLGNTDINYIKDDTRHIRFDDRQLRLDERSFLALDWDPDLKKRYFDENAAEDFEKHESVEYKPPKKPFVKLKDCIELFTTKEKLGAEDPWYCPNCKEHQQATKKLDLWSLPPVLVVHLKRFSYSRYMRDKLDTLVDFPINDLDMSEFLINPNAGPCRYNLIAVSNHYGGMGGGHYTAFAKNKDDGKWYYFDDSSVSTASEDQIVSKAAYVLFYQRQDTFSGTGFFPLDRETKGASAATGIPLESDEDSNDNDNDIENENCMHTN
# B1: Squamous Cell Carcinoma Antigen Recognized By T Cells 3 (SART3) (protein, UniProt Q15020 1-963)
# chain: MATAAETSASEPEAESKAGPKADGEEDEVKAARTRRKVLSRAVAAATYKTMGPAWDQQEEGVSESDGDEYAMASSAESSPGEYEWEYDEEEEKNQLEIERLEEQLSINVYDYNCHVDLIRLLRLEGELTKVRMARQKMSEIFPLTEELWLEWLHDEISMAQDGLDREHVYDLFEKAVKDYICPNIWLEYGQYSVGGIGQKGGLEKVRSVFERALSSVGLHMTKGLALWEAYREFESAIVEAARLEKVHSLFRRQLAIPLYDMEATFAEYEEWSEDPIPESVIQNYNKALQQLEKYKPYEEALLQAEAPRLAEYQAYIDFEMKIGDPARIQLIFERALVENCLVPDLWIRYSQYLDRQLKVKDLVLSVHNRAIRNCPWTVALWSRYLLAMERHGVDHQVISVTFEKALNAGFIQATDYVEIWQAYLDYLRRRVDFKQDSSKELEELRAAFTRALEYLKQEVEERFNESGDPSCVIMQNWARIEARLCNNMQKARELWDSIMTRGNAKYANMWLEYYNLERAHGDTQHCRKALHRAVQCTSDYPEHVCEVLLTMERTEGSLEDWDIAVQKTETRLARVNEQRMKAAEKEAALVQQEEEKAEQRKRARAEKKALKKKKKIRGPEKRGADEDDEKEWGDDEEEQPSKRRRVENSIPAAGETQNVEVAAGPAGKCAAVDVEPPSKQKEKAASLKRDMPKVLHDSSKDSITVFVSNLPYSMQEPDTKLRPLFEACGEVVQIRPIFSNRGDFRGYCYVEFKEEKSALQALEMDRKSVEGRPMFVSPCVDKSKNPDFKVFRYSTSLEKHKLFISGLPFSCTKEELEEICKAHGTVKDLRLVTNRAGKPKGLAYVEYENESQASQAVMKMDGMTIKENIIKVAISNPPQRKVPEKPETRKAPGGPMLLPQTYGARGKGRTQLSLLPRALQRPSAAAPQAENGPAAAPAVAAPAATEAPKMSNADFAKLFLRK
# B2: Kinesin Family Member 15 (KIF15) (protein, UniProt Q9NS87 1-1388)
# chain: MAPGCKTELRSVTNGQSNQPSNEGDAIKVFVRIRPPAERSGSADGEQNLCLSVLSSTSLRLHSNPEPKTFTFDHVADVDTTQESVFATVAKSIVESCMSGYNGTIFAYGQTGSGKTFTMMGPSESDNFSHNLRGVIPRSFEYLFSLIDREKEKAGAGKSFLCKCSFIEIYNEQIYDLLDSASAGLYLREHIKKGVFVVGAVEQVVTSAAEAYQVLSGGWRNRRVASTSMNRESSRSHAVFTITIESMEKSNEIVNIRTSLLNLVDLAGSERQKDTHAEGMRLKEAGNINRSLSCLGQVITALVDVGNGKQRHVCYRDSKLTFLLRDSLGGNAKTAIIANVHPGSRCFGETLSTLNFAQRAKLIKNKAVVNEDTQGNVSQLQAEVKRLKEQLAELASGQTPPESFLTRDKKKTNYMEYFQEAMLFFKKSEQEKKSLIEKVTQLEDLTLKKEKFIQSNKMIVKFREDQIIRLEKLHKESRGGFLPEEQDRLLSELRNEIQTLREQIEHHPRVAKYAMENHSLREENRRLRLLEPVKRAQEMDAQTIAKLEKAFSEISGMEKSDKNQQGFSPKAQKEPCLFANTEKLKAQLLQIQTELNNSKQEYEEFKELTRKRQLELESELQSLQKANLNLENLLEATKACKRQEVSQLNKIHAETLKIITTPTKAYQLHSRPVPKLSPEMGSFGSLYTQNSSILDNDILNEPVPPEMNEQAFEAISEELRTVQEQMSALQAKLDEEEHKNLKLQQHVDKLEHHSTQMQELFSSERIDWTKQQEELLSQLNVLEKQLQETQTKNDFLKSEVHDLRVVLHSADKELSSVKLEYSSFKTNQEKEFNKLSERHMHVQLQLDNLRLENEKLLESKACLQDSYDNLQEIMKFEIDQLSRNLQNFKKENETLKSDLNNLMELLEAEKERNNKLSLQFEEDKENSSKEILKVLEAVRQEKQKETAKCEQQMAKVQKLEESLLATEKVISSLEKSRDSDKKVVADLMNQIQELRTSVCEKTETIDTLKQELKDINCKYNSALVDREESRVLIKKQEVDILDLKETLRLRILSEDIERDMLCEDLAHATEQLNMLTEASKKHSGLLQSAQEELTKKEALIQELQHKLNQKKEEVEQKKNEYNFKMRQLEHVMDSAAEDPQSPKTPPHFQTHLAKLLETQEQEIEDGRASKTSLEHLVTKLNEDREVKNAEILRMKEQLREMENLRLESQQLIEKNWLLQGQLDDIKRQKENSDQNHPDNQQLKNEQEESIKERLAKSKIVEEMLKMKADLEEVQSALYNKEMECLRMTDEVERTQTLESKAFQEKEQLRSKLEEMYEERERTSQEMEMLRKQVECLAEENGKLVGHQNLHQKIQYVVRLKKENVRLAEETEKLRAENVFLKEKKRSES
# B3: Ubiquitin carboxyl-terminal hydrolase 4 (protein, UniProt Q13107 1-963)
# chain: MAEGGGCRERPDAETQKSELGPLMRTTLQRGAQWYLIDSRWFKQWKKYVGFDSWDMYNVGEHNLFPGPIDNSGLFSDPESQTLKEHLIDELDYVLVPTEAWNKLLNWYGCVEGQQPIVRKVVEHGLFVKHCKVEVYLLELKLCENSDPTNVLSCHFSKADTIATIEKEMRKLFNIPAERETRLWNKYMSNTYEQLSKLDNTVQDAGLYQGQVLVIEPQNEDGTWPRQTLQSKSSTAPSRNFTTSPKSSASPYSSVSASLIANGDSTSTCGMHSSGVSRGGSGFSASYNCQEPPSSHIQPGLCGLGNLGNTCFMNSALQCLSNTAPLTDYFLKDEYEAEINRDNPLGMKGEIAEAYAELIKQMWSGRDAHVAPRMFKTQVGRFAPQFSGYQQQDSQELLAFLLDGLHEDLNRVKKKPYLELKDANGRPDAVVAKEAWENHRLRNDSVIVDTFHGLFKSTLVCPECAKVSVTFDPFCYLTLPLPLKKDRVMEVFLVPADPHCRPTQYRVTVPLMGAVSDLCEALSRLSGIAAENMVVADVYNHRFHKIFQMDEGLNHIMPRDDIFVYEVCSTSVDGSECVTLPVYFRERKSRPSSTSSASALYGQPLLLSVPKHKLTLESLYQAVCDRISRYVKQPLPDEFGSSPLEPGACNGSRNSCEGEDEEEMEHQEEGKEQLSETEGSGEDEPGNDPSETTQKKIKGQPCPKRLFTFSLVNSYGTADINSLAADGKLLKLNSRSTLAMDWDSETRRLYYDEQESEAYEKHVSMLQPQKKKKTTVALRDCIELFTTMETLGEHDPWYCPNCKKHQQATKKFDLWSLPKILVVHLKRFSYNRYWRDKLDTVVEFPIRGLNMSEFVCNLSARPYVYDLIAVSNHYGAMGVGHYTAYAKNKLNGKWYYFDDSNVSLASEDQIVTKAAYVLFYQRRDDEFYKTPSLSSSGSSDGGTRPSSSQQGFGDDEACSMDTN
# Target: T1, Ubiquitin Specific Peptidase 15 (USP15) (human (endogenous in LN-229, LN-428, LN-18))
# Assay: affinity purification with mass spectrometry; IP of endogenous USP15 (antibody NB110-40690, 5 ug/mg lysate) from LN-229 lysate (1% NP40, 25 mM Tris pH 7.5, 150 mM NaCl), overnight at 4°C, protein A agarose beads, washes 0.1% Tween-20/PBS; two independent IPs (3 mg and 5 mg protein); control normal rabbit IgG
row,Molecule,binding
1,Complement C4-A (human (endogenous in LN-229)),binds
2,Dynamin-1-like protein (from UniProt O00429 1-736),binds
3,Glutamine synthetase (from UniProt P15104 1-373),binds
4,HECT Domain Containing E3 Ubiquitin Protein Ligase 1 (HECTD1) (from UniProt Q9ULT8 1-2610),binds
5,Oxysterol Binding Protein-Like 3 (OSBPL3) (from UniProt Q9H4L5 1-887),binds
6,Ubiquitin carboxyl-terminal hydrolase 11 (from UniProt P51784 1-963),binds
7,B1,binds
8,B2,binds
9,B3,binds
